The chains are these.
B1: tRNA (parent)
chain: GUUCCGUUGGCGUAAUGGUAACGCGUCUCCCUCCUAAGGAGAAGACUGCGGGUUCGAGUCCCGUACGGAACG

Variants at the floor of the assay are shown more often than the library holds them.

In the series the parent is B1. The series is described as follows: yeast fitness relative to wild type (ratio to wild type); higher = fitter; tRNA-Arg(CCU), competitive growth, 37 C, YPD. Put shortly: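 Variants of the tRNA-Arg(CCU) gene, chemically synthesised with a 3% per-site mutation rate at 69 sites, were placed at the native genomic locus in Saccharomyces cerevisiae. The pooled strains were competed in YPD at 37°C for 24 hours in six parallel replicates. Gene amplicons from the start population and from each end population were read by 100-nucleotide paired-end sequencing. Darwinian fitness relative to wild type came from changes in genotype frequencies; genotypes needed ≥ 100 starting reads, and estimates < 0.5 were set to 0.5.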
For C5A C11G C33A G38A U53A C55U, the yeast fitness is at most 0.5.
Then U13C C24U G41A C62A, with at most 0.5; and C29A C49U G63A, with at most 0.5.
Then U2A G58A U64G, with at most 0.5.
For U28C C34G A42C C46U U54A C55G G58C C66A the value was at most 0.5.
For the variant A42C A45C G48A, the yeast fitness was determined as 0.958.
For A15G G39A C62A G67C the value was at most 0.5; for G6A C29U A42C G48C, at most 0.5; for C22G A57C C62U, at most 0.5.
In the case of G23C C46A G52A G56A C62U, the yeast fitness was at most 0.5.
Then U16G A21G C31U, with 0.985; and A15C U19C A37C A69U, with at most 0.5.
Consider C5A U16C U59G, for which the yeast fitness was at most 0.5.
With U3A C5U A15C A36U A40G C49G G67U, the yeast fitness is at most 0.5.
For C27G U35A G44A the value was at most 0.5; for U28C G39A G51C C62A A70U, at most 0.5.
For C4U G12C A20G U47A C49U A57U C61A G68A the value was at most 0.5; for C27G A42G A43U, at most 0.5; for U2G U13G A36G C49U G56A A70G, at most 0.5.
For C34A U47C G68C the value was at most 0.5; for A42G U59C C61U, 0.502.
Take G18A C34U G48A A65C: the yeast fitness was at most 0.5.
For U2A G6A A20C A69G, the yeast fitness was at most 0.5.
For the variant C5A A14U U53A, the yeast fitness is at most 0.5.
Then C5G C11G A42C C49U U64G C66U, with at most 0.5; and U8C A14U C30A C61U C62A A70G, with 0.532; and A14C G25C U47A C66A, with at most 0.5.
With U16A U26A C30G U59C, the yeast fitness is at most 0.5.
Then G12A C34U A45U C49G, with at most 0.5; and A14U G39A G63A, with at most 0.5; and C31U G39A G44A C61A, with at most 0.5.
For G6C U8C C60A C62U the value was at most 0.5; for G6A C29A C62U, at most 0.5.
Then U13G U26G G52A, with at most 0.5; and U8C G12C C46G G52A G58A, with at most 0.5; and U19A A37U G41C G50A, with at most 0.5.
For the variant C5U U8A G18A C66A, the yeast fitness was at most 0.5.
For C29G A42C C55U, the yeast fitness is at most 0.5.
For C4U C11G U19C C29U the value was at most 0.5.
Then C30U U47A A57G, with at most 0.5.
Then U16A C30U A42U U64C, with at most 0.5; and A15C C62G C66A A69C, with at most 0.5; and C5A C31G G44C G52C, with at most 0.5.
In the case of A20G C46U C49A C62U, the yeast fitness is at most 0.5.
Then C4U G6A G9A U13C U28C, with at most 0.5; and C27U A57U C62A, with at most 0.5.
Then C5U C34A C66U, with at most 0.5; and C27G C34U C66U, with at most 0.5.
For the variant U3A C4A U16A C30G G63A U64C G67C, the yeast fitness is at most 0.5.
Then C22G G51A G67A, with at most 0.5.
For U2C C11U A21C U26C C46G the value was at most 0.5.
Then C27G A40G G48A A57C U64A, with at most 0.5; and U7A C30G U32G A65U, with at most 0.5.
Take G10C C29U C31U: the yeast fitness was at most 0.5.
For C11G C30U G67C the value was at most 0.5; for U2C C4A C11U C29U G67A A70U, at most 0.5.
For C4U A40C C62U the value was at most 0.5; for A43G C49U C60A C62A, at most 0.5; for U3C G9A G48C, 0.784.
For C31A G56C G58A G63C A65U the value was at most 0.5.
Take C5G A14U C33G A43U C66A: the yeast fitness is at most 0.5.
As for A20U G41C C49U G56C, the yeast fitness is at most 0.5.
For G23C U32A C60G the value was at most 0.5.
For G41C C62G the value was 0.597; for A43G G56C G58A, at most 0.5; for G12C C33A, 0.682.
For G9C G10A C24G A37U the value was at most 0.5; for C11U C30U G44C G51A C61U, at most 0.5.
Take C4U A42U G51C C62U C66U: the yeast fitness is at most 0.5.
Then U7A C11G A36U G48A U54A, with at most 0.5; and A36G G52A C66A A69U, with at most 0.5; and C4U U7C A57U C61U, with at most 0.5.
As to C5G C27A A37C C55G, the yeast fitness is at most 0.5.
For U3G C46U U59A the value was 0.562; for G6C U8A G18A A45U U53C G67A A69C, at most 0.5.
For A21U C24G C27U C30U A36U G39A, the yeast fitness was at most 0.5.
Then U26C A45U G68C, with at most 0.5.
For C30G C31A U32A the value was at most 0.5; for C27G G38A C49G, at most 0.5; for U26C A43C G52A U53C G63C, at most 0.5.
For C34A A40G U47A C66G A69C the value was at most 0.5.
On to A43C C49A, for which the yeast fitness turned out to be 0.631.
For C29G U32C A36C G41A G50A U53C the value was at most 0.5; for C5U U16A C34A G52A A70U, at most 0.5; for C5U C22G A69C, 0.691.
Then C5U C24A G39C U54C C60G, with at most 0.5; and U54C C55A, with 0.635; and C5U U16G A65U C66U, with at most 0.5.
With G50A C55U G68U, the yeast fitness was at most 0.5.
For U7A G9C C30U C34G A57U C66U the value was at most 0.5.
For C5A C27U G39C the value was at most 0.5.
For the variant U7C C11A C27G, the yeast fitness was at most 0.5.
As for U2G C31U U54G, the yeast fitness was at most 0.5.
Then C30U C61G A69C, with at most 0.5; and U3A A36U A43G G52C, with at most 0.5.
Then C30A C31U A36G G50A A65G C66U, with at most 0.5; and U8C C27G C33A U47A, with at most 0.5; and G17A C22U, with 0.737.
For A20C U28C G41A A57U C66G the value was at most 0.5.
For the variant G58A C60U C62A, the yeast fitness amounted to 0.552.
For U2A G12A A20G A21C C29A the value was at most 0.5; for C11G A20U C24A G25C, at most 0.5.
With C24G C31G C61G A69C, the yeast fitness was at most 0.5.
For A21U U32C C49U A57C the value was 0.595; for U32G C34U A57G, 0.561.
Turning to G6C A14C A21C A42G, the yeast fitness was at most 0.5.
With C29G C46U C61A G63C, the yeast fitness is at most 0.5.
For U28A C29G C33A A42U the value was at most 0.5; for A20U A37U A57U C62U, at most 0.5.
For U3G A14C C49U C55A C66U the value was at most 0.5.
For C4G A15C the value was 0.719.
Consider U19G C22U C31U A40U G50U G67A, for which the yeast fitness was at most 0.5.
As for G48C C61A G63C, the yeast fitness is at most 0.5.
Then G9C C22A C34A G51A A65U, with at most 0.5.
U2A A14U G56A: the yeast fitness was at most 0.5.
For A15U U28A U64G the value was at most 0.5; for U3A A36U C60A, at most 0.5; for U8G C55G, at most 0.5.
Regarding C5A A20C G68A, the yeast fitness was at most 0.5.
With G9C G50A G51A, the yeast fitness is at most 0.5.
For U32C A40G G52C the value was at most 0.5.
On to G18A A20U G56A, for which the yeast fitness is at most 0.5.
In the case of C22A C27U A43G C46G A69C, the yeast fitness was at most 0.5.
As to U16C A21U A43U G67A, the yeast fitness is at most 0.5.
Then C4A C31G G39A G51C, with at most 0.5; and C4U C11G C31G, with at most 0.5.
Then G25A C29G U35C A45C C46G, with at most 0.5; and A21C A36G C66A, with at most 0.5; and C5U U16A C34A U53C C60U, with at most 0.5.
Then U2C C27G A42U U53C, with at most 0.5; and C49A A57C A65G, with at most 0.5; and G12A A43U C62G A65G, with at most 0.5.
Take U7A U19G A70G: the yeast fitness is at most 0.5.
Then A14U U16A G25A A37G, with at most 0.5.
Then C22U A65G A70G, with at most 0.5.
Then A14U A43G G63C, with at most 0.5; and C4G U13A U54A, with at most 0.5; and G9A C30U G39A A40G G67A, with at most 0.5.
As for C30G A36U G52A, the yeast fitness is at most 0.5.
Then C27G C29U C49U, with at most 0.5; and C29U C66A, with 0.591; and A20G C29G A40G, with at most 0.5.
Then G9C C22A C34A C49U A65G, with at most 0.5; and C4G G18A A40C G56C, with at most 0.5.
Then U16C C31U C33A C34G U35A C66U, with at most 0.5; and A21C C33U U35C, with at most 0.5.
Take U16C C22U A37U C49A C62U: the yeast fitness worked out at 0.6.
Then U26C C33A C62U, with at most 0.5.
For C11G A15U A21G C30U the value was at most 0.5; for C29U A57G U59C, at most 0.5; for G6C A15G A21G G25A C55A, at most 0.5.
Take U7A G10C C30G A36U U59A: the yeast fitness was at most 0.5.
Then C4G C27G G52C C62U G67A, with at most 0.5; and U19C U35C C49U C61G, with at most 0.5; and U26C C49G, with 0.842.
Take U3C A14U U19C A37U C60A: the yeast fitness was at most 0.5.
Regarding C22A C49U G51C, the yeast fitness was at most 0.5.
Regarding U16C C34G A65U G67U, the yeast fitness is at most 0.5.
For C31A A37G A57G, the yeast fitness was at most 0.5.
Consider U8G U13A C30U G39C C55G A65C A70C, for which the yeast fitness was at most 0.5.
Then A15U U28A U59A C66A, with at most 0.5; and U2A G10A G17C U35C C62U A70C, with at most 0.5.
For C4U C11G A21C C33A U35G A40C A65U the value was at most 0.5; for C33A A42G G68A A70U, at most 0.5.
For G12A U13A A37G A40G U59A the value was at most 0.5; for G52A C55G A57U, at most 0.5.
Turning to C5U G25A C49A A69U, the yeast fitness was at most 0.5.
